Test [1] relates to BDF1 mice, L1210 leukemia sc, survival T/C. The test can be described thus: NCI In Vivo Anticancer Drug Screen. Data for tumor model L1210 Leukemia (subcutaneous) in B6D2F1 (BDF1) mice. The settings on record: T/C endpoint: median survival time, schedule: Q01DX Z (sc), vehicle: saline, higher T/C = longer survival. Put shortly:
(§1)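 Transplantable tumor-bearing mice; survival or tumor size recorded; result = T/C, treated vs vehicle control.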

Test [2] has as its system BDF1 mice, L1210 leukemia sc. Described as above. The settings on record: T/C endpoint: median survival time; dose: 14.0 mg/kg/injection; schedule: Q01DX Z (sc); vehicle: saline; higher T/C = longer survival. Put shortly:
as §1

Each structure is given as a SMILES string. The list does not hold the whole screen: it gathers some chemical classes. Not every dose and run of a compound is shown. T/C: endpoint of the treated group in % of that of the vehicle group. Where survival is the endpoint, this PubChem deposit counts one and a half times the control or more as active, and values a quarter to a half above the control carry no call in these data; other NCI protocols may use other cut-offs. Schedules are NCI's codes, taken here to give the interval after Q, in days (D) or hours (H), and the number of doses after X. Some schedules carry Z or #; the key to these is not given. Some entries hold several experiments; the values are given in rising order. Some T/C values carry the count of animals alive at the toxicity check (mostly the fifth day); without a count or a note in brackets, all were alive then.

As for `Cc1[nH]c(=O)[nH]c(=O)c1N(CCCl)CCCl`, the T/C is 100 % of control in test [1] (dose: 0.05 mg/kg/injection); 105 % of control [8 of 10 alive] in test [1] (dose: 0.08 mg/kg/injection); 100 % of control [8 of 10 alive] in test [1] (dose: 0.14 mg/kg/injection); 100 % of control [8 of 10 alive] in test [1] (dose: 0.23 mg/kg/injection); 105 % of control in test [1] (dose: 0.39 mg/kg/injection); 100 % of control [9 of 10 alive] in test [1] (dose: 0.65 mg/kg/injection). In addition, the T/C is 110 % of control [8 of 10 alive] in test [1] (dose: 1.08 mg/kg/injection); 100 % of control [9 of 10 alive] in test [1] (dose: 1.8 mg/kg/injection); 100 % of control in test [1] (dose: 3.0 mg/kg/injection); 100 % of control [8 of 10 alive] in test [1] (dose: 5.0 mg/kg/injection); 104 and 120 % of control in test [1] (dose: 8.4 mg/kg/injection); 109 % of control [9 of 10 alive] in test [1] (dose: 14.0 mg/kg/injection). Also, the T/C is 118 and 120 % of control in test [1] (dose: 23.0 mg/kg/injection); 118 % of control in test [1] (dose: 39.0 mg/kg/injection); 109 % of control in test [1] (dose: 65.0 mg/kg/injection); 140 % of control in test [2].
